From ChEMBL document CHEMBL3425412, “Additional sesterterpenes and a nortriterpene saponin from the sponge Clathria gombawuiensis” (2015)
In brackets after ≈: the same amount, converted by molar mass.

Test system: Escherichia coli
Assay: Antimicrobial activity against Escherichia coli ATCC 35270 after 24 hrs by twofold dilution method
Assay type: functional
Details: ATCC 35270, 24 h

## CC1(C)S[C@@H]2[C@H](NC(=O)[C@H](N)c3ccccc3)C(=O)N2[C@H]1C(=O)O [AMPICILLIN]
  MIC: 3.1 mg/L (≈ 8.87 µM)
